# Measurements taken from patent US10118930B2, “Piperidinylpyrazolopyrimidinones and their use” (BAYER PHARMA AKTIENGESELLSCHAFT, priority 2015, dated 2018).
# Counter-ions that a name gives are not always drawn. At least one structure is not confirmed: it was looked up by name or label, or the drawing left a doubt.
# System: clot lysis (fibrinolysis) in diluted human citrated plasma, tPA-induced
# Assay: Plasma-based clot lysis assay (5%)
# Format: biochemical
# Conditions: human citrated platelet-poor plasma 5%, fibrinogen 3 μM, CaCl2 10 mM, tPA 0.2 nM, 37° C., OD at 405 nm
# Procedure: B-2. Plasma-based Clot Lysis Assay (5%)
# The clot-lysis test system configures the kinetics of clot formation and degradation in vitro and allows quantifying modulation of the process by selected test compounds.
# The test compounds were dissolved in 1% acetic acid and further complemented with an equal volume of DMSO. The resulting stock solutions were serially diluted in 0.5% acetic acid/50% DMSO. 1 μL aliquots of these solutions were placed into 384 well microplates (Greiner, black, transparent bottom), followed by 30 μL of diluted human citrated plasma (platelet-poor, final concentration: 5%; supplemented with fibrinogen, final concentration: 3 μM; dilution buffer: 20 mM HEPES, 150 mM NaCl, 0.01% Brij (pH 7)). The reactions were started by addition of 20 μL of CaCl2 (final concentration: 10 mM), and tPA (tissue plasminogen activator, final concentration: 0.2 nM) in dilution buffer, followed by an additional volume of 20 μL dilution buffer for improved mixing. The reactions were incubated at 37° C. […] IC50 values were determined by comparing the resulting time courses with the time course of a blank control reaction.
smiles,measurement,value
"O=C(Nc1cnn2c(C3CCNCC3)cc(=O)[nH]c12)c1ccccc1 [Example 254, N-[5-oxo-7-(piperidin-4-yl)-4,5-dihydropyrazolo[1,5-c]pyrimidin-3-yl]benzamide hydrochloride]",IC50,0.1 µM
